These results are taken from article PMC3397443, “Sinularones A–I, New Cyclopentenone and Butenolide Derivatives from a Marine Soft Coral Sinularia sp. and Their Antifouling Activity” (Marine Drugs, 2012).

This series concerns larvae of the barnacle Balanus amphitrite. Nature of the series: Larval settlement bioassay (antifouling activity). It is filed as in vivo. Particulars: ratio of larval LC50 to settlement EC50. Here is the method:
All compounds were tested for their cytotoxicity against a panel of tumor cell lines including human ovarian carcinoma A2780, human lung adenocarcinoma A549, human gastric carcinoma BGC823, human hepatoma Bel7402, and human colonic carcinoma HCT-8. […] In order to detect whether these compounds play a role for ecological functions, the test for antifouling activity against the larvae of the barnacle Balanus amphitrite was performed. […] A primary discussion of structure-activity relationship implied that α,β-unsaturated 2,3-dimethyl-γ-lactone is a functional unit for anti-barnacle.
Adults of the barnacle Balanus amphitrite Darwin were exposed to air for more than 6 h, and then were placed in a container filled with fresh 0.22 µm filtered sea water (FSW) to release nauplii. The collected nauplii were reared to cyprid stage according to the method described by Thiyagarajan et al.. When kept at 26–28 °C and fed with Chaetoceros gracilis, larvae developed to cyprids within four days. Fresh cyprids were used in the tests.

Consider `CC(=O)CC/C=C(/C)C[C@@H]1CC(C)(C)CC1=O` [Compound 1, Sinularone A], for which the “Balanus amphitrite Larvae LC50/EC50” value is recorded as greater than 3.61.

Turning to `CCCCC[C@@]1(O)C(C)=C(C)C(=O)[C@H]1CC(=O)OCC` [Compound 2, Sinularone B], the “Balanus amphitrite Larvae LC50/EC50” value was greater than 2.13.

With `CCOC(=O)CC[C@]1(O)OC(=O)C(C)=C1C` [Compound 7, Sinularone G], the “Balanus amphitrite Larvae LC50/EC50” value is listed as greater than 2.69.

For `CCO[C@@]1(CCC(=O)OC)OC(=O)C(C)=C1C` [Compound 8, Sinularone H], the “Balanus amphitrite Larvae LC50/EC50” value was greater than 2.34.

As to `CCOC(=O)CCCCCCCCCCCC[C@]1(O)OC(=O)C(C)=C1C` [Compound 9, Sinularone I], the “Balanus amphitrite Larvae LC50/EC50” value is on record as greater than 3.97.

In the case of `CCCCC[C@]1(O)OC(=O)C(C)=C1C` [Compound 10, (S)-4-hydroxy-2,3-dimethyl-4-pentyl-γ-lactone], the “Balanus amphitrite Larvae LC50/EC50” value is greater than 13.02.
